Assay results published in article PMC10580122.
No constants are given. Whether binding was seen depends on the method and setting. For part of these data: In cells and extracts the contact can be indirect. Some binding calls cover weakened binding; strength is not graded here.

The chains behind the UniProt entries cited, without tags or fusion partners. Where a name states a change or a piece, a line headed by the entry shows the natural chain unless it says otherwise. Residues count along the entry.
UniProt Q99665: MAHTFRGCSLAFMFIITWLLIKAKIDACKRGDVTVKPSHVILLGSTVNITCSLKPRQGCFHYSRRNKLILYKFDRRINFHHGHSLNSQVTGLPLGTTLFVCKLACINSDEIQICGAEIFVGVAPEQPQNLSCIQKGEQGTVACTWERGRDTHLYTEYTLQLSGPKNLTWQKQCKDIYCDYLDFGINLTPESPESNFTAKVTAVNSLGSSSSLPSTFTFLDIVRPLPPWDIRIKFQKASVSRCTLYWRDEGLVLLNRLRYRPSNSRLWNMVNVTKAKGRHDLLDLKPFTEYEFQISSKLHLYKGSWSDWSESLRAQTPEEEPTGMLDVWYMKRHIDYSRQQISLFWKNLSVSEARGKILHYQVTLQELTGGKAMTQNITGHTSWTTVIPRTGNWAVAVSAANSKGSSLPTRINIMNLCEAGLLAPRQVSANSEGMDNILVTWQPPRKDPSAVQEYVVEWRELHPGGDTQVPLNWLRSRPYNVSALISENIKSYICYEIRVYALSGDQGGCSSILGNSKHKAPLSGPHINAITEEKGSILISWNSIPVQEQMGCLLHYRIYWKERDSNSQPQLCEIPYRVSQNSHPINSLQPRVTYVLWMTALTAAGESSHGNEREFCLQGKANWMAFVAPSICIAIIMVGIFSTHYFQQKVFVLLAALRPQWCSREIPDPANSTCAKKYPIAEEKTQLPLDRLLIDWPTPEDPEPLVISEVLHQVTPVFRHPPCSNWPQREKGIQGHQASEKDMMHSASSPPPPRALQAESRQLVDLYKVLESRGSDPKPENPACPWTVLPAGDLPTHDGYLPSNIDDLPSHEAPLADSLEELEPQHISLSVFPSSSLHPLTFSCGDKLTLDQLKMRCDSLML
recombinant human IL-12Rβ2: residues 24-622 of Q99665
UniProt P29459: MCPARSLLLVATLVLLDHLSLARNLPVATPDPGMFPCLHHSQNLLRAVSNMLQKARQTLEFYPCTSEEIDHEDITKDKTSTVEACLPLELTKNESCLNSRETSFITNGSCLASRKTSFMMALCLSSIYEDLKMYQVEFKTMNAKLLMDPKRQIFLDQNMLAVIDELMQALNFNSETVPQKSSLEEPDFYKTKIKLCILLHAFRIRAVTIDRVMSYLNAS
UniProt P29460, residues 23-328: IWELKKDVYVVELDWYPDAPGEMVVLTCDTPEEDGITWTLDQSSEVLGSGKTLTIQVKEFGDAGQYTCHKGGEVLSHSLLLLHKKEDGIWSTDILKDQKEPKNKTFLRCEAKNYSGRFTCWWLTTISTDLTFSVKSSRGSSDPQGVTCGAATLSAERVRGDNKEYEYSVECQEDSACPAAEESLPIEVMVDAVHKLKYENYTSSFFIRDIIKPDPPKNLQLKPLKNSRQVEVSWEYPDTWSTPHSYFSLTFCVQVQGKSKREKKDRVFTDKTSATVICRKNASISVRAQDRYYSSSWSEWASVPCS

Tests used:
[1] = target: recombinant human IL-12Rβ2 (human) (UniProt Q99665); assay: ELISA; solid-phase binding assay; wells coated with rIL-12Rβ1, rIL-12Rβ2 or no IL-12R chain; IL-12 or IL-12p40 monomer alone or with IL-35, each cytokine fixed at 5 μg/ml; overnight at 4°C; detected with anti-IL-12 or anti-IL-12p40 and HRP; both purified
[2] = target: recombinant human IL-12Rβ2 (human) (UniProt Q99665); assay: ELISA; solid-phase binding assay; rIL-12Rβ2 coated on plate (5 μg/ml, 50 μl per well, PBS); variable concentrations of one cytokine with or without the other at a fixed 10 μg/ml; overnight at 4°C; bound cytokine detected with anti-IL-12 or anti-IL-35 and HRP; both purified
Human IL-12 (human) = Human IL-12 (human) (UniProt P29459+P29460); assay: co-IP; reporter cells stimulated with IL-12 or IL-35 (150 ng/ml) for 10 min at 37°C, washed, lysed (50 mM Tris-HCl, NaCl, 1% Triton X-100); about 100 μg lysate incubated with anti-IL-12 or anti-IL-35 Ab overnight at 4°C; eluate blotted with anti-IL-12RB2; only the target purified
Human IL-35 (human) = Human IL-35 (human) (UniProt P29459+Q14213); assay: as above

Row | Substance | binding [1] | binding [2] | binding (Human IL-12 (human)) | binding (Human IL-35 (human))
1 | Human IL-12 (from UniProt P29459 23-219; P29460 23-328) (complex) | binds | binds |  | 
2 | Human IL-35 (from UniProt P29459 23-219; Q14213 21-229) (complex) |  | binds |  | 
3 | IL-12p40 monomer (from UniProt P29460 23-328) | no binding (tested: 5 μg/ml) |  |  | 
4 | human IL-12Rβ2 expressed in IL-12 bioactivity reporter cells (from UniProt Q99665 24-862) (receptor) |  |  | binds | binds
